Data as given in PubChem BioAssay AID1508588 (Peter MacCallum Cancer Centre, 2020)
The deposit covers about 18,000 reagents; shown is a random part of them. 790 of them (4.4%) were called active. 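Calls rest on a combination of fold-change classes in drug and vehicle arms, not all shown here.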

Screen: 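Which gene losses make BRAF-mutant melanoma cells more responsive to vemurafenib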 (primary screen)
System: human WM266.4 melanoma cells (BRAF V600 mutant)
Reagents: siRNA pool against human genes, 40 nM
Timing: 96 h from transfection to read-out
Treatment: vemurafenib 300 nM (about IC25), added 48 h after transfection, for 48 h; comparison arm got DMSO vehicle only
Measurement: 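Ratios to non-targeting siRNA for cell gain, counted as DAPI nuclei after minus before drug and averaged over two replicates, and for absorbance-read medium lactate per cell; both binned into fold-change classes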
Scale: cell gain with vemurafenib: higher = more cell gain than with non-targeting siRNA; lactate per cell with vemurafenib: higher = more lactate made per cell
Call rule: 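Enhancement is called by pairing each knock-down's vehicle-arm and drug-arm fold-change classes for viability or glycolysis; which class combinations qualify is not given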
Meaning of the calls: active = enhances vemurafenib effect; inactive = no enhancement seen

target gene | PubChem SID | cell gain with vemurafenib | lactate per cell with vemurafenib | outcome
TBXA2R | SID152149289 | 0.11 | 0.95 | inactive
CR2 | SID134312799 | 0.69 | 0.66 | inactive
AKAP14 | SID135623379 | 0.6 | 0.43 | active
ITIH1 | SID152153300 | 0.41 | 0.86 | inactive
ARLN | SID135625291 | 0.19 | 0.97 | inactive
OR52A5 | SID152156043 | 0.15 | 1.64 | inactive
TMEM37 | SID152156395 | 0.93 | 0.8 | inactive
KCNJ4 | SID135621166 | 0.53 | 0.55 | inactive
PITPNM1 | SID134323646 | 0.71 | 0.74 | inactive
VIRMA | SID134323080 | 0.8 | 1.32 | inactive
CAPN3 | SID135621076 | 0.64 | 1.04 | inactive
TRIB3 | SID56478723 | 0.16 | 0.28 | active
KLK14 | SID152149381 | 0.83 | 0.45 | active
PTPN9 | SID134313685 | 0.73 | 1.16 | inactive
GSE1 | SID134325461 | 0.77 | 1.27 | inactive
ANO8 | SID135624977 | 0.18 | 0.73 | inactive
NME1-NME2 | SID135625555 | 0.14 | 1.73 | inactive
SPNS3 | SID134322782 | 0.44 | 0.97 | inactive
C9orf43 | SID134319607 | 0.96 | 0.36 | inactive
PTGR3 | SID152150300 | 1.09 | 1.37 | inactive
MIR99AHG | SID135624985 | 0.36 | 0.36 | inactive
ATM | SID152150358 | 0.73 | 0.88 | inactive
DOLPP1 | SID135623424 | 0.66 | 0.96 | inactive
DHDH | SID152151851 | 0.59 | 0.76 | inactive
B2M | SID134310411 | 0.32 | 1.16 | inactive
ITFG2 | SID135622967 | 0.66 | 0.89 | inactive
CEP20 | SID152156336 | 0.58 | 0.72 | inactive
FGF5 | SID152151075 | 0.91 | 0.8 | inactive
PRDM13 | SID134312163 | -0.21 | 2.48 | inactive
UBE2D2 | SID135621938 | 0.56 | 0.81 | inactive
SEC14L1 | SID135622115 | 0.25 | 3.93 | inactive
MUC17 | SID152156207 | 0.49 | 0.97 | inactive
HAP1 | SID152151018 | 0.43 | 0.54 | inactive
FOXA2 | SID135621888 | 0.44 | 1.05 | inactive
BCL9 | SID152147091 | 0.24 | 0.86 | inactive
IDH3A | SID134313610 | 0.36 | 0.57 | inactive
DOK3 | SID134318640 | 0.8 | 1.06 | inactive
TBC1D13 | SID134320917 | 0.21 | 1.48 | inactive
DDX10 | SID135622207 | 0.39 | 0.78 | inactive
BRD8 | SID134311763 | 0.6 | 0.32 | inactive
TEAD1 | SID152148396 | 0.43 | 1.39 | inactive
CCN5 | SID134315053 | 1.02 | 0.68 | inactive
NEUROG2 | SID134313847 | 0.88 | 1 | inactive
PRM1 | SID135623809 | 0.7 | 0.84 | inactive

Reprinted from above, 6 entries:
target gene | PubChem SID | cell gain with vemurafenib | lactate per cell with vemurafenib | outcome
TBC1D13 | SID134320917 | 0.21 | 1.48 | inactive
DDX10 | SID135622207 | 0.39 | 0.78 | inactive
BRD8 | SID134311763 | 0.6 | 0.32 | inactive
TEAD1 | SID152148396 | 0.43 | 1.39 | inactive
CCN5 | SID134315053 | 1.02 | 0.68 | inactive
NEUROG2 | SID134313847 | 0.88 | 1 | inactive

More records follow.
target gene | PubChem SID | cell gain with vemurafenib | lactate per cell with vemurafenib | outcome
AACS | SID152153685 | 0.6 | 0.84 | inactive
ZNF143 | SID152150190 | 0.6 | 1.06 | inactive
KBTBD3 | SID134320942 | 0.56 | 1.56 | inactive
MEPCE | SID134320619 | 0.27 | 2.34 | inactive
SURF2 | SID134321404 | 0.47 | 1.52 | inactive
CASP3 | SID135620812 | 0.86 | 1.19 | inactive
ZNF672 | SID134312193 | 0.05 | 1.34 | inactive
SYPL2 | SID135625149 | 0.86 | 1.49 | inactive
HDAC5 | SID152150398 | 0.47 | 0.84 | inactive
ZNF358 | SID152154924 | 0.15 | 1.95 | inactive
OR5T1 | SID152150127 | 0.16 | 1.36 | inactive
PRSS21 | SID135620726 | 0.4 | 0.52 | inactive
DDRGK1 | SID134318428 | 0.9 | 0.84 | inactive
COLQ | SID135622475 | 0.56 | 0.68 | inactive
LIPN | SID135625465 | 0.39 | 1.7 | inactive
DPH7 | SID152147855 | 0.43 | 0.88 | inactive
TGFBI | SID134323167 | 0.31 | 0.32 | inactive
OR8G5 | SID152151403 | 0.83 | 0.77 | inactive
F2RL1 | SID134310740 | 0.72 | 1.06 | inactive
CCHCR1 | SID135623994 | 0.72 | 0.24 | inactive
SEC23IP | SID134316646 | 0.98 | 1.04 | inactive
TEPSIN | SID134319842 | 1.12 | 0.53 | inactive
ZNF704 | SID135625417 | 0.81 | 0.44 | inactive
AKAP17A | SID134323689 | 0.6 | 1.09 | inactive
SLFNL1 | SID134320941 | 0.58 | 1 | inactive
PYCR3 | SID135622705 | 0.46 | 0.3 | inactive
SYNE3 | SID152152796 | 0.06 | 0.64 | inactive
SOFU1 | SID152155638 | 0.84 | 1.05 | inactive
AARS1 | SID152148951 | 0.98 | 0.43 | active
PCK1 | SID135621257 | 0.18 | 1.29 | inactive
OR4K13 | SID134329875 | 0.77 | 1.2 | inactive
ANKRD2 | SID134317964 | 0.15 | 0.92 | inactive
DEFB119 | SID135624221 | 0.52 | 0.54 | inactive
IGDCC3 | SID152151063 | 0.2 | 2.02 | inactive
SPATS2 | SID135622703 | 0.57 | 1.21 | inactive
SUCLG1 | SID152151093 | 0.61 | 0.97 | inactive
SLC23A3 | SID135621375 | 1.09 | 0.66 | inactive
PTGER2 | SID134311143 | 0.34 | 1.16 | inactive
OCM2 | SID135622278 | 0.36 | 2.03 | inactive
SDE2 | SID135623148 | 0.58 | 1.27 | inactive
